The source of these data is publication doi:10.1101/2020.04.11.036434.

Sequences of proteins named here, by UniProt entry; tags and fusion partners are left off.
UniProt P60484: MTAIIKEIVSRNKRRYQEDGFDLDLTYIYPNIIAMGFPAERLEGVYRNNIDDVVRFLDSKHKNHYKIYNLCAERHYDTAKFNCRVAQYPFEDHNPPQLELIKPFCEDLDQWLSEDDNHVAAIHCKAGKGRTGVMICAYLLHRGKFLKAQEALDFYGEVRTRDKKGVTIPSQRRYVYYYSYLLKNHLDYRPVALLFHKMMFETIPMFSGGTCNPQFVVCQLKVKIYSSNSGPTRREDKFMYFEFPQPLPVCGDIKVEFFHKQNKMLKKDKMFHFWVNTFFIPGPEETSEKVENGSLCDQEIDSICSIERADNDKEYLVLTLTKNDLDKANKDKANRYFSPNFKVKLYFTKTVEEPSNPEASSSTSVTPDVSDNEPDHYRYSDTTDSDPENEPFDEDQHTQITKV
UniProt Q8TCU6: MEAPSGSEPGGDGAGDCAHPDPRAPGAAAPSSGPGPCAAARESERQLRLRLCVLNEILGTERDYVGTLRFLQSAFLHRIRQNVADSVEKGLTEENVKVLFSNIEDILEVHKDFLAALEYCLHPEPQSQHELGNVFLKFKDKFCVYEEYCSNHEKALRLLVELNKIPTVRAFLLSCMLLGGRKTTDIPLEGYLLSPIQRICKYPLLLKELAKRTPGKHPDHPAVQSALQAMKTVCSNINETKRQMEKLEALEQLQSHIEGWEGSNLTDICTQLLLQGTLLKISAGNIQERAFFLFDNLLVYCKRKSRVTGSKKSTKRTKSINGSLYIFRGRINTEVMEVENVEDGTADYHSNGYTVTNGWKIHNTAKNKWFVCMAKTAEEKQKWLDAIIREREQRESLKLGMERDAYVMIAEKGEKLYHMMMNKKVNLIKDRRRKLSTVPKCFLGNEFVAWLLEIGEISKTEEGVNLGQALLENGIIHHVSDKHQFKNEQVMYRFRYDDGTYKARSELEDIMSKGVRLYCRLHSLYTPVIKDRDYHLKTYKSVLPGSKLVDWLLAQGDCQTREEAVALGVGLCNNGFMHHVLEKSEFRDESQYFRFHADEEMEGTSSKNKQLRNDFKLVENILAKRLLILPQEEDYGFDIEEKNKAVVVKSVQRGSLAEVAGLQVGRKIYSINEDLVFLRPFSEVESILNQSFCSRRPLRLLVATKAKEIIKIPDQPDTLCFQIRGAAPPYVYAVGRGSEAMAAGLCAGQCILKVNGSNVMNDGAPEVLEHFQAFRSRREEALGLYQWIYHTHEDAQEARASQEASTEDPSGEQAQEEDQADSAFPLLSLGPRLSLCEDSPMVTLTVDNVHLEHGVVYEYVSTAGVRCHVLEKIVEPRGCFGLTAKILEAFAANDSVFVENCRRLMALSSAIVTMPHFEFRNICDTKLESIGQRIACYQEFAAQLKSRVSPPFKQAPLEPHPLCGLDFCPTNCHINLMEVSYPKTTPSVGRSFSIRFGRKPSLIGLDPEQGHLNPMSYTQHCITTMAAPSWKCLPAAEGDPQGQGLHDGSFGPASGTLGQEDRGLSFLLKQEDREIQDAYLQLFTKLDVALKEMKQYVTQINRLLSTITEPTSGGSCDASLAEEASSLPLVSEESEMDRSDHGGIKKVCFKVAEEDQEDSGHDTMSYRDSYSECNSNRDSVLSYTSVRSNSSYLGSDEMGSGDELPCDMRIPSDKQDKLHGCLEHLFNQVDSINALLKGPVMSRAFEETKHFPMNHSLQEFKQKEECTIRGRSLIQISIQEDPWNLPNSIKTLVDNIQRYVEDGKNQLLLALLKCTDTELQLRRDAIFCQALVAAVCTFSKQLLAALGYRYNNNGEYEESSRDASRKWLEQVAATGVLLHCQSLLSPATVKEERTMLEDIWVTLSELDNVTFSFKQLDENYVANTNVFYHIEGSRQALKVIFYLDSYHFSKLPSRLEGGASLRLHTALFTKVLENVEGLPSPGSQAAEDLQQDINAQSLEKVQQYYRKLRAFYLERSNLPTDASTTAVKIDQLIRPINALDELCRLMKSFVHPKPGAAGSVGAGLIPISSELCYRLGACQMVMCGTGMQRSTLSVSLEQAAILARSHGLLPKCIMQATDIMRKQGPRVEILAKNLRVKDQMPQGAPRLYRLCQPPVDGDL

No constants are given. Whether binding was seen depends on the method and setting.

This experiment addresses PTEN (WT), recombinant insect-cell purified (UniProt P60484). In words: SPR.

With “P-Rex1 (WT) (from UniProt Q8TCU6 1-1659)”, the binding result is listed as “no binding”.
